Measurements reported in the supplement of paper PMC10338343.
± gives the standard deviation. The list shows a part of the results. The uncertainty is large for many entries.

What follows are sequences tested on EfPiwi piRISC loaded with L1MC piRNA (26 nt) (assay: pre-steady-state target cleavage rate (min^-1); guide: L1MC piRNA 5'p-UAACUAAAUACUAUGCAAGCUGUAGG; MIWI and MILI are mouse PIWI proteins and EfPiwi is from a freshwater sponge; tags in brackets are library labels; higher = faster piRNA-guided slicing of the target). Conditions: auxiliary factor: none (no Gtsf1).
Method in brief: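 The pre-steady-state cleavage rate was calculated from a burst-and-steady-state fit. Data came from Cleave-'n-Seq, in which […] transcribed, DNA-blocked target RNA library was mixed with 1 nM active affinity-purified piRISC carrying one synthetic guide, with or without 500 nM GTSF1 partner protein, in HEPES–potassium acetate buffer at 33 °C for 0–8 or 0–960 min. Uncleaved targets were sequenced and normalised to depth and to weakly complementary targets, three trials were pooled, and k3 was capped at 0.0001 min^-1.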

| Sequence | pre-steady-state target cleavage rate |
| --- | --- |
| UCCUGGAUGUCGAACCAUAGUUUUAGUUA | < 0.0001 |
| UCCUCCUACAGCAUCCAUAGUAUUUAGUUA | 0.000318 ± 0.015 |
| UCCUGCUACAGCUUGGUUAGUAUUUACAAA | 0.000752 ± 0.0095 |
| UCCUGGUACAGCUUGCAUAGUAUAUACAAA | 0.000262 ± 0.03 |
| UCCUGCUACAGCUUGCAUAGUUAAUACAAA | 0.000207 ± 0.026 |
| UCCUCCUACAGCUAGCAUAGUAUUUAGAAA | 0.000508 ± 0.012 |
| UCCUGGAUGAGCUUCCAUAGUAUUUACAAA | 0.000348 ± 0.022 |
| UCCUGGAACAGCUUGCAUAGUUAUUACAAA | 0.000137 ± 0.029 |
| UCCUGGAUCAGCUUGCAUGUAUUUAGUUA | 0.00118 ± 0.0071 |
| UCCUGGAUGUCCUUCCAUAGUAUUUAGAUA | 0.000105 ± 0.076 |
| UCCUGGAUGUCGUUGCAUAGUAUUAAGUUA | 0.00123 ± 0.0075 |
| UCCUGGAUGUGCUUGCAUAGUAUUAAGAAA | 0.00087 ± 0.0087 |
| UCCUGGAUGUGCUUGCAUAGUUUUAAGUUA | 0.000433 ± 0.021 |
| UCCUGGAACAGCUUGCAUAGUAAUAAGUUA | 0.000394 ± 0.019 |
| UCCUCCUACAGCUUGCAUAGUAUGUAGUUA | 0.000422 ± 0.011 |
| UCCUGCUACAGGUUGCAUAGUAUUUACAAA | < 0.0001 |
| UCCUCCUACAGCUUGCAAUGUAUUUAGAAA | 0.000241 ± 0.02 |
| UCCUGGAUGUCGAACCAUUCAAUUUAGUUA | < 0.0001 |
| UCCUGGAACAGCUUGCAUACAUUUUAGUAA | 0.000443 ± 0.014 |
| UCCUCCUACAGCUUCCAUAGUAUUUAGAAA | 0.000483 ± 0.012 |

| Sequence | pre-steady-state target cleavage rate |
| --- | --- |
| UCCUGGUACAGCUUGCAUAGAUAUUACAAA | 0.000362 ± 0.019 |
| UCCUCCUACAGCUUGGUUAGUAUUUUCAAA | 0.000121 ± 0.022 |
| UCCUGGUACAGCAACCAUAGUAUUUACAAA | 0.000121 ± 0.031 |
| UCCUGGAUCAGCUACCAUAGUAUUUACAAA | 0.000125 ± 0.056 |
| UCCUGGAACAGCUUGCAUAGUAUUUGUUA | 0.000863 ± 0.0096 |
| UCCUGGAUCAGCUUGCAUAGAUUUUAGAAA | 0.000475 ± 0.011 |
| UCCUGGUACAGCUUGCAUAGUAUAAAGAAA | 0.000616 ± 0.012 |
| UCCUGGAACAGCUUGCAUUCAAUUUAGUAA | 0.000528 ± 0.013 |
| UCCUGGAUCAGGUUGCAUAGUAUUUUCAAA | < 0.0001 |
| UCCUGGUACAGCUUGCAUAGUAAUUUCAAA | 0.000619 ± 0.015 |
| UCCUCCUACAGGAAGCAUAGUAUUUAGAAA | 0.000378 ± 0.018 |
| UCCUGGAUGAGCUUGCAUAGUUAAUAGAAA | 0.000748 ± 0.013 |
| UCCUGGAUGUCGAAGCAAAGAAUUUAGUUA | 0.000411 ± 0.014 |
| UCCUGGAACAGCUUGCUUAGUAUUUUCAAA | 0.000286 ± 0.02 |
| UCCUCCUACAGCUUGCAGUAGUAUUUAGUUA | 0.00152 ± 0.0052 |
| UCCUGGAUGUCGAUGCAUAGUAUUUAGUCUA | 0.000134 ± 0.053 |
| UCCUGGAUGAGCUUGGUAAGUAUUUAGUAA | 0.00123 ± 0.0084 |
| UCCUGCUACAGCUUGCAUAGUAAUUAGAAA | 0.000308 ± 0.014 |
| UCCUGGAUGUCGAAGCAUUCAAUUUAGUUA | 0.000234 ± 0.021 |

Random excerpt: 3 entries already listed

| Sequence | pre-steady-state target cleavage rate |
| --- | --- |
| UCCUGGAACAGCUUGCUUAGUAUUUUCAAA | 0.000286 ± 0.02 |
| UCCUGGAUCAGCUUGCAUAGAUUUUAGAAA | 0.000475 ± 0.011 |
| UCCUGGAUCAGGUUGCAUAGUAUUUUCAAA | < 0.0001 |
